Results on 1 substance are retold here after article PMC3648559.

By UniProt entry, the sequences of proteins in these tests, tags left out.
UniProt P31749: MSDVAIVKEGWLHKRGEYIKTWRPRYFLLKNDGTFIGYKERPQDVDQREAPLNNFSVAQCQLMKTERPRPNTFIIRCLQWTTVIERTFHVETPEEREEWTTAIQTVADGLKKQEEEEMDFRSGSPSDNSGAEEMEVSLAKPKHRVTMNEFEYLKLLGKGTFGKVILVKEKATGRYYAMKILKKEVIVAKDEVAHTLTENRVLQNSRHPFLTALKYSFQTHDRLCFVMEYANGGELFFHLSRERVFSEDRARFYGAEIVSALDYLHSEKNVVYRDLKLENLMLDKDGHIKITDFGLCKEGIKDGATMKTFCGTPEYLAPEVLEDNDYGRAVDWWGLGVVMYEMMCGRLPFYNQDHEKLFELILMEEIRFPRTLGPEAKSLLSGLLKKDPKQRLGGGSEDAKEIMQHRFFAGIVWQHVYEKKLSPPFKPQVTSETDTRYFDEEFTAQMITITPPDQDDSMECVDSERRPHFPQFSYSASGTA

No constants are given. Whether binding was seen depends on the method and setting. In cells and extracts the contact can be indirect. Some binding calls cover weakened binding; strength is not graded here.

For the test, the target named is CA916798 (human (endogenous in A549)). Put plainly: co-IP; endogenous proteins in lysates of A549 and A549/CDDP cells (20 mM Tris, 150 mM NaCl, 1% TritonX-100); IP with anti-CA916798 and blot for p-AKT1 (ser473), and the reverse; Protein A-Sepharose; naive IgG as negative control.

On to “phosphorylated AKT1 (ser473) (from UniProt P31749 1-480)”, for which the binding entry is on record as “binds”.
